PubChem BioAssay AID1259266 – Sanger Institute | 2017

- Assay: 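Search kinases and colorectal cancer genes for essential genes and drug synergy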 (primary screen)
- Cells: LS123 human colorectal cancer cells
- Knock-down reagent: siRNA pool against human genes
- Conditions: anchor drugs BYL719 (1 µM), cetuximab (5 µg/ml) or trametinib (10 nM), each chosen to barely slow growth alone; DMSO vehicle as the drug-free arm
- Read-out: 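Replicate-averaged viability scaled to non-targeting pools, robust z-score for siRNA alone, and a synergy score per anchor drug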
- Scale: robust z-score, knock-down alone: higher = more cells surviving after knock-down; viability, knock-down alone: higher = more viable cells; synergy score with trametinib and synergy score with BYL719 and synergy score with cetuximab: higher = stronger synthetic lethality with drug
- Active means: 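Essential when the robust z-score of the knock-down alone is below -3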
- Calls: active = essential (knock-down alone cuts viability); inactive = no change
This is one part, drawn at random, of 794 reagents tested. In the full data, 16 (2%) are marked active. 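Calls reflect knock-down alone, not drug synergy; viability seems capped at 1 and z-scores at 0.585.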 Not given: the amount of reagent, the time to read-out.

no.	target gene	robust z-score, knock-down alone	viability, knock-down alone (fraction of control)	synergy score with trametinib	synergy score with BYL719	synergy score with cetuximab	Outcome
1	LMBR1	0.585	1	-0.123	-0.116	-0.0122	inactive
2	CTCF	-0.97	0.908	-0.11	-0.133	0.0168	inactive
3	PRKCG	0.585	1	-0.137	-0.159	-0.0122	inactive
4	MAP3K11	-0.391	0.942	-0.145	-0.0374	-0.00949	inactive
5	CMPK1	0.585	1	-0.0734	-0.0812	-0.0122	inactive
6	PAK3	0.517	0.996	0.0151	0.0569	0.0317	inactive
7	PRPS1L1	0.585	1	-0.0969	-0.0946	-0.0122	inactive
8	PPP2R1A	0.585	1	-0.00589	-0.111	-0.0122	inactive
9	NEK9	0.456	0.992	-0.0473	-0.0443	-0.0198	inactive
10	EPHA2	0.585	1	-0.186	-0.159	-0.0122	inactive
11	PIP4K2C	-0.0785	0.961	-0.0967	-0.0815	-0.0511	inactive
12	PRKAG2	0.585	1	-0.132	-0.159	-0.0122	inactive
13	PNCK	0.585	1	-0.0229	-0.0434	0.0409	inactive
14	STK33	0.585	1	0.0244	-0.00243	-0.0122	inactive
15	MAP3K8	0.585	1	-0.0422	-0.0254	0.054	inactive
16	TTK	0.219	0.978	-0.0355	-0.078	0.0218	inactive
17	MPP2	0.585	1	-0.0251	-0.159	-0.0122	inactive
18	STK24	0.585	1	-0.0856	-0.0542	0.00443	inactive
19	ITPKA	0.585	1	-0.133	-0.08	-0.0122	inactive
20	MAP4K1	0.585	1	-0.0545	-0.0544	0.0136	inactive
21	MAP3K4	0.585	1	-0.173	-0.156	-0.0122	inactive
22	CIT	-0.207	0.953	-0.0699	-0.00661	0.00406	inactive
23	CTNNB1	-0.351	0.944	-0.0462	-0.109	-0.0106	inactive
24	RIPK1	-1.27	0.89	-0.0462	-0.125	-0.0149	inactive
25	PIP5K1A	-0.83	0.916	-0.0713	-0.0596	0.0132	inactive
26	GALK2	-0.402	0.941	-0.0345	-0.0435	0.00213	inactive
27	TYRO3	0.585	1	-0.102	-0.057	0.00361	inactive
28	ATR	0.529	0.997	-0.0454	-0.0782	-0.000144	inactive
29	KIT	-3.04	0.785	-0.147	-0.189	-0.156	active
30	PIK3R3	0.585	1	-0.186	-0.0853	-0.0122	inactive
31	ERN1	0.585	1	-0.0721	-0.0665	-0.0122	inactive
32	PRKD2	0.367	0.987	-0.09	-0.0392	-0.025	inactive
33	TTBK2	0.0335	0.967	0.00112	0.000611	0.0989	inactive
34	BTK	-0.514	0.935	-0.0253	-0.0592	0.0168	inactive

Called active, of those listed so far:
target gene	robust z-score, knock-down alone	viability, knock-down alone (fraction of control)	synergy score with trametinib	synergy score with BYL719	synergy score with cetuximab	Outcome
KIT	-3.04	0.785	-0.147	-0.189	-0.156	active
